Measurements from publication PMC3900104.
No constants are given. Whether binding was seen depends on the method and setting. Binding seen in cells or lysates may run through a third protein. Binding can be weak; no strength is given. Where a sequence is shown, tags or fusion partners need not be part of it.

Target: T1, FLAG-tagged TRAK1 (trafficking-protein-Kinesin-binding-1), aa 2-953, in COS7 (human) (UniProt Q9UPV9)
T1 sequence: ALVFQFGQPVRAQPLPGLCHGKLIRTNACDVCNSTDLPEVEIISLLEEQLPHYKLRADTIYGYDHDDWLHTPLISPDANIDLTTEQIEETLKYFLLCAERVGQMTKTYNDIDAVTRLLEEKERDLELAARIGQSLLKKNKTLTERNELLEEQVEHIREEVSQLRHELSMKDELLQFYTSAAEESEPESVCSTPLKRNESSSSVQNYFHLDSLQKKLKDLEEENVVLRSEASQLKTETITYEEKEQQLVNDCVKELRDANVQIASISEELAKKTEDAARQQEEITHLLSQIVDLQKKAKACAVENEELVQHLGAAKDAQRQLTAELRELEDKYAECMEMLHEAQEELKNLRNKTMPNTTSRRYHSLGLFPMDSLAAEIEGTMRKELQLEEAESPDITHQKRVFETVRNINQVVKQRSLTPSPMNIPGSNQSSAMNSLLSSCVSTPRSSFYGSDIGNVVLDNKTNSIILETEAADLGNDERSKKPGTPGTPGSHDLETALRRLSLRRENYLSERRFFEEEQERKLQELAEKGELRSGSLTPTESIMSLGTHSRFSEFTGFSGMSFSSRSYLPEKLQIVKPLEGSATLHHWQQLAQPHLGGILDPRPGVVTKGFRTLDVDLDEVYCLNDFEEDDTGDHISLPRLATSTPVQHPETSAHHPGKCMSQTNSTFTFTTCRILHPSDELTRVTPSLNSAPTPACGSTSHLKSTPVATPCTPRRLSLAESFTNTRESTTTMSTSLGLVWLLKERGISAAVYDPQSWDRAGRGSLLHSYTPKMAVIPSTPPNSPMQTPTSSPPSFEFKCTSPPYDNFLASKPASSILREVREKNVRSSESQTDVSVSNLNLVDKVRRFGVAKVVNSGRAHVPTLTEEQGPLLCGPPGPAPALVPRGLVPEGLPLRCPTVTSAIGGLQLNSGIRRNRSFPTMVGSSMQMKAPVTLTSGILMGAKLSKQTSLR
Test: co-IP; IP of FLAG-TRAK1 from transfected cells with or without Myc-DISC1 or Myc-DISC1-37W; endogenous alpha-tubulin and Kinesin-1 detected by blot; for quantification IP buffer with 0.1% SDS (Fig. S3)

binding: binds
Substance: endogenous Kinesin-1
